# PubChem BioAssay AID485314 (National Center for Advancing Translational Sciences (NCATS), 2010)
# Hit rate of the full screen: of about 340,000 compounds, about 4,500 (1.3%) were called active. The shares of active, inactive and inconclusive entries below differ from those in the screen. Calls come from the whole dose curve; as a rule, active = well fitted inhibition curve with a large enough effect; inconclusive = small, poorly fitted or top-dose-only effect, or another doubt; inactive = no such curve, though single readings can be large or run the other way. Where the call is inconclusive, the potency comes from a doubtful curve fit.
# Biological target: DNA polymerase beta (Homo sapiens) (UniProt P06746)
# Experiment: qHTS Assay for Inhibitors of DNA Polymerase Beta
# Details: Pol beta primer extension/strand displacement, fluorescence kinetic; activity change, negative = inhibition: at 114 µM (top of the series)
# Procedure, shortened: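 Homogeneous kinetic assay of primer extension and strand displacement by 10 nM Pol beta, preincubated 15 min at room temperature with compound before 50 nM substrate (final) was added. Read at 0 and 10 min; four-parameter Hill fit.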
# % is set by controls: 0 for no effect and ±100 for the full control effect; potency is the fitted concentration of half-maximal effect.
SMILES,Potency,"activity change, negative = inhibition"
CC(C)C(=O)Nc1nnc(S(=O)(=O)N(C)Cc2ccc(F)cc2)s1,inactive,
O=c1c2ccccc2nnn1COc1cccc(Cl)c1,"inconclusive: 89.1 µM [inhibitor, single point]",
O=C(CSCc1cnn(-c2ccccc2)c1-n1cccc1)NCc1ccc2c(c1)OCO2,"inconclusive: 100 µM [inhibitor, single point]",
COc1ccc(NC(=O)Nc2ccc([N+](=O)[O-])cc2)cn1,active: 28.2 µM,
O=C1c2cccc3c([N+](=O)[O-])ccc(c23)C(=O)N1c1ccccn1,"inconclusive: 15.8 µM [inhibitor, full curve, poor fit]",
Cc1ccc(C(=O)OC2=C(C(=O)c3ccccc3)N(C)S(=O)(=O)c3ccccc32)cc1,"inconclusive: 89.1 µM [inhibitor, single point]",
Cc1ccccc1OCC(=O)N(Cc1cccc(F)c1)C1CCS(=O)(=O)C1 (stereo unspecified),"inconclusive: 0.316 µM [inhibitor, full curve, poor fit]",
O=C(Cc1ccc(-c2ccccc2)cc1)NCCS(=O)(=O)N1CCN(c2cccc(Cl)c2)CC1,inactive,
CCOc1ccc(S(=O)(=O)N(CCO)CCO)cc1-c1nc2c(C(C)(C)C)nn(C)c2c(=O)[nH]1,"inconclusive: 100 µM [inhibitor, single point]",
O=S(=O)(c1ccc(Cl)cc1)N1CCCN(c2nc3ccc(Cl)cc3s2)CC1,"inconclusive: 100 µM [inhibitor, single point]",
CCOc1ccccc1C(=O)Nc1nn[nH]n1,inactive,
COc1ccc(/C=C2\CCn3c2nc2cc(C(=O)O)ccc2c3=O)cc1O,active: 25.1 µM,
CC(C)Oc1ccc(CNC(=O)c2cc3cccc4c3n2CC(C)S4)cc1 (stereo unspecified),inactive,
O=c1oc2c3c4c(cc2s1)CCCN4CCC3,active: 22.4 µM,
CCOc1ccc(C2C(=O)N(C3CCCCC3)CC(=O)N2Cc2ccccc2OC)cc1OC (stereo unspecified),"inconclusive: 70.8 µM [inhibitor, single point]",
Cc1ccc(-c2onc(C)c2C)cc1S(=O)(=O)N1CCC(C)CC1,"inconclusive: 1.41 µM [inhibitor, full curve, poor fit]",
COc1ccc(NS(=O)(=O)c2ccc(O)c(C(=O)OCC(=O)NC(C)C3CC4CCC3C4)c2)cc1 (stereo unspecified),"inconclusive: 31.6 µM [inhibitor, full curve, poor fit]",
Cc1cc(Cl)ccc1OCC(=O)OC(C)C(=O)N(C)C (stereo unspecified),"inconclusive: 22.4 µM [inhibitor, single point]",
O=C(O)Cc1cc2c(s1)CCCCC2,"inconclusive: 10 µM [inhibitor, partial curve]",
Cc1cc(C(=O)CSc2nc(N)cc(=O)[nH]2)c(C)n1Cc1ccco1,,inconclusive: -40.5% [inhibitor]
CCN(CC)c1ccc(-c2sc(Nc3ccccc3)n[n+]2-c2ccc(F)cc2)cc1,inactive,
Cc1oc2ncn(CC(C)C)c(=O)c2c1C(=O)NCc1cccc(Cl)c1,inactive,
NC(=O)c1ccc(NC(=O)Cn2c(=O)n(-c3ccccc3)c(=O)c3oc4ccccc4c32)cc1,"inconclusive: 3.55 µM [inhibitor, partial curve, poor fit]",

SMILES,Potency,"activity change, negative = inhibition"
O=c1c2c(-c3ccc(Cl)cc3)csc2ncn1/N=C/c1cccc([N+](=O)[O-])c1O,inactive,
CC(C)Cn1cc(NC(=O)NCc2ccc(Cl)cc2)c2ccccc2c1=O,inactive,
O=C(c1coc(=O)c(Br)c1)N1CCC(C(O)(c2ccccc2)c2ccccc2)CC1,inactive,
O=C(O)c1cccc(N2C(=O)c3cc([N+](=O)[O-])cc4cc([N+](=O)[O-])cc(c34)C2=O)c1,active: 6.31 µM,
Cc1ccc(N(CC(=O)NCC2CCCO2)C(=O)CNS(=O)(=O)c2ccc(Cl)cc2)cc1 (stereo unspecified),"inconclusive: 89.1 µM [inhibitor, single point]",
CCC1CCC(C(=O)NNC(=O)c2cc(-c3ccco3)[nH]n2)CC1 (stereo unspecified),"inconclusive: 50.1 µM [inhibitor, full curve]",
CCOC(=O)N1CCC(NC(=O)c2ccc3c(c2)N(Cc2ccccc2)C(=O)c2ccccc2S3(=O)=O)CC1,inactive,
O=C1C=C(Nc2ccccc2C(=O)O)c2ccccc2C1=O,,inconclusive: -42.7% [inhibitor]
CCOc1ccc(Nc2nc(N)c(C(=O)c3ccccc3Cl)s2)cc1,inactive,
CNC(=S)N/N=C(\C)c1ccc2c(c1)OCO2,inactive,
CCN(CC)C(=O)Nc1cnc2ccccc2c1,"inconclusive: 89.1 µM [inhibitor, single point]",
CC(=O)OC1=C(C(C)=O)N(Cc2ccccc2)S(=O)(=O)c2ccccc21,inactive,
CN(C)S(=O)(=O)NCC1CCCN(Cc2ccc(-c3ccccc3)cc2)C1 (stereo unspecified),"inconclusive: 28.2 µM [inhibitor, single point]",
O=C(CCC(=O)Nc1ccccc1)N/N=C/c1ccco1,"inconclusive: 39.8 µM [inhibitor, partial curve]",
Cc1csc(Nc2ccccc2)[n+]1-c1ccccc1,"inconclusive: 25.1 µM [inhibitor, partial curve, poor fit]",
O=C(c1cc(-c2ccc(Br)cc2)n[nH]1)N1CCN(S(=O)(=O)c2ccc(Br)s2)CC1,inactive,
COc1ccc(-c2onc(C)c2C)cc1S(=O)(=O)N1CCc2ccccc21,inactive,
O=C(O)COn1c(-c2ccccc2)nc2ccc([N+](=O)[O-])cc21,active: 35.5 µM,
CCOC(=O)c1ccc(NC(=O)CC2Nc3cccc4cccc(c34)NC2=O)cc1 (stereo unspecified),inactive,
O=C(O)c1ccccc1C(=O)Nc1n[nH]c(=S)s1,active: 22.4 µM,
COc1ccc(/C=C/C(=O)O)cc1S(=O)(=O)NCc1ccco1,"inconclusive: 25.1 µM [inhibitor, partial curve, poor fit]",
O=C(Nc1ccc(Cl)c(Cl)c1)Nc1nnc(-c2ccncc2)s1,"inconclusive: 50.1 µM [inhibitor, partial curve, poor fit]",
COc1ccc2oc(C(=O)OCC(=O)N(CCC#N)c3ccccc3)c(C)c2c1,"inconclusive: 35.5 µM [inhibitor, full curve, poor fit]",

# An excerpt from above in order of molecular weight, smallest number first:
SMILES,Potency,"activity change, negative = inhibition"
CCOc1ccc(Nc2nc(N)c(C(=O)c3ccccc3Cl)s2)cc1,inactive,
O=C(c1coc(=O)c(Br)c1)N1CCC(C(O)(c2ccccc2)c2ccccc2)CC1,inactive,
Cc1ccc(N(CC(=O)NCC2CCCO2)C(=O)CNS(=O)(=O)c2ccc(Cl)cc2)cc1 (stereo unspecified),"inconclusive: 89.1 µM [inhibitor, single point]",
